Experimental data as given in PubChem BioAssay AID190 (DTP/NCI, 2004).
The list shows only some results of the screen, not a fair sample: it is rich in T/C values a quarter to a half above the control, in often repeated tests (any T/C) and in doses without a T/C. Further doses and runs are listed elsewhere. T/C is the treated group as % of the vehicle group. Some entries give survivors of the animals treated and no T/C: the source files T/C as zero there, which appears to mark a toxic dose or a test without result, not a measured value. Some doses without a T/C left all or most animals alive at the check, yet need not have been tolerated: the source hardly ever lists a survival T/C far under the control, and the zero likely stands for such cases as well. Survivors were counted at the toxicity check, usually on the fifth day, unless a day is given; later deaths do not show. Schedule codes are those of the source, taken here to give the interval after Q, in days (D) or hours (H), and the number of doses after X. Some entries were tested several times; the results are listed from low to high. For survival time, this PubChem deposit counts one and a half times the control or more as active, and values a quarter to a half above the control carry no call in these data; other NCI protocols may use other cut-offs. Some T/C values carry the count of animals alive at the toxicity check (mostly the fifth day); without a count, all were alive then. Counts like (3×) say how often a value occurs here.

System: AKR/Lw mice, AKR lymphoma ip, median survival T/C
Assay: NCI In Vivo Anticancer Drug Screen. Data for tumor model Lymphoma AKR (Transplanted) (intraperitoneal) in AKR/Lw mice
Conditions: T/C endpoint: median survival time, higher T/C = longer survival
Protocol: The antitumor activity of compounds was measured in mice bearing transplantable tumors. Survival or tumor size were measured and the results are expressed as the measurement made in the treated group (T) divided by the measurement made in the vehicle treated control group (C). The tumor model used in this assay is Lymphoma AKR (Transplanted) (intraperitoneal) in AKR/Lw mice

[1] = dose: 100.0 mg/kg/injection, schedule: Q01DX009 (ip), vehicle: saline
[2] = dose: 150.0 mg/kg/injection, schedule: Q01DX001 (ip), vehicle: saline
[3] = dose: 200.0 mg/kg/injection, schedule: Q01DX009 (ip), vehicle: Klucel (hydroxypropylcellulose) (HPC)
[4] = dose: 200.0 mg/kg/injection, schedule: Q04DX003 (ip), vehicle: saline
[5] = dose: 300.0 mg/kg/injection, schedule: Q01DX001 (ip), vehicle: saline
[6] = dose: 200.0 mg/kg/injection, schedule: Q01DX001 (ip), vehicle: saline
[7] = dose: 400.0 mg/kg/injection, schedule: Q01DX001 (ip), vehicle: saline
[8] = dose: 100.0 mg/kg/injection, schedule: Q01DX001 (ip), vehicle: saline
[9] = dose: 100.0 mg/kg/injection, schedule: Q04DX003 (ip), vehicle: Klucel (hydroxypropylcellulose) (HPC)
[10] = dose: 15.0 mg/kg/injection, schedule: Q01DX009 (ip), vehicle: saline
[11] = dose: 25.0 mg/kg/injection, schedule: Q01DX009 (ip), vehicle: saline
[12] = dose: 50.0 mg/kg/injection, schedule: Q01DX009 (ip), vehicle: saline
[13] = dose: 400.0 mg/kg/injection, schedule: Q04DX003 (ip), vehicle: saline
[14] = dose: 600.0 mg/kg/injection, schedule: Q01DX001 (ip), vehicle: saline

## S=c1nc[nH]c2nc[nH]c12
dose: 50.0 mg/kg/injection, schedule: Q01DX001 (ip), vehicle: Klucel (hydroxypropylcellulose) (HPC)
  survivor count: 9 of 10
dose: 65.0 mg/kg/injection, schedule: Q04DX003 (ip), vehicle: Klucel (hydroxypropylcellulose) (HPC)
  survivor count: 10 of 10
dose: 75.0 mg/kg/injection, schedule: Q01DX009 (ip), vehicle: saline
  survivor count: 10 of 10
[1]
  T/C: 130 % of control
dose: 100.0 mg/kg/injection, schedule: Q01DX015 (ip), vehicle: Klucel (hydroxypropylcellulose) (HPC)
  survivor count: 9 of 10
dose: 120.0 mg/kg/injection, schedule: Q01DX009 (ip), vehicle: saline
  survivor count: 10 of 10
dose: 125.0 mg/kg/injection, schedule: Q04DX003 (ip), vehicle: Klucel (hydroxypropylcellulose) (HPC)
  survivor count: 10 of 10
dose: 135.0 mg/kg/injection, schedule: Q04DX003 (ip), vehicle: Klucel (hydroxypropylcellulose) (HPC)
  survivor count: 10 of 10
dose: 150.0 mg/kg/injection, schedule: Q01DX001 (ip), vehicle: Klucel (hydroxypropylcellulose) (HPC)
  survivor count: 10 of 10
[2]
  T/C: 128 % of control
dose: 150.0 mg/kg/injection, schedule: Q01DX009 (ip), vehicle: saline
  survivor count: 9 of 10
dose: 150.0 mg/kg/injection, schedule: Q04DX003 (ip), vehicle: Klucel (hydroxypropylcellulose) (HPC)
  survivor count: 10 of 10
dose: 175.0 mg/kg/injection, schedule: Q01DX001 (ip), vehicle: Klucel (hydroxypropylcellulose) (HPC)
  survivor count: 9 of 10
dose: 200.0 mg/kg/injection, schedule: Q01DX001 (ip), vehicle: Klucel (hydroxypropylcellulose) (HPC)
  T/C: 94, 94 [8 of 10 alive], 118 % of control (2×)
[3]
  survivor count: 8 of 10
dose: 200.0 mg/kg/injection, schedule: Q01DX015 (ip), vehicle: Klucel (hydroxypropylcellulose) (HPC)
  survivor count: 5 of 10
dose: 200.0 mg/kg/injection, schedule: Q04DX003 (ip), vehicle: Klucel (hydroxypropylcellulose) (HPC)
  survivor count: 10 of 10
[4]
  survivor count: 10 of 10
dose: 300.0 mg/kg/injection, schedule: Q01DX001 (ip), vehicle: Klucel (hydroxypropylcellulose) (HPC)
  survivor count: 10 of 10
[5]
  survivor count: 10 of 10
dose: 400.0 mg/kg/injection, schedule: Q01DX001 (ip), vehicle: Klucel (hydroxypropylcellulose) (HPC)
  survivor count: 9 of 10
dose: 400.0 mg/kg/injection, schedule: Q01DX015 (ip), vehicle: Klucel (hydroxypropylcellulose) (HPC)
  survivor count: 10 of 10
dose: 400.0 mg/kg/injection, schedule: Q04DX003 (ip), vehicle: Klucel (hydroxypropylcellulose) (HPC)
  survivor count: 8 of 10

## c1ccc2c(c1)CNCc1ccccc1-2
[6]
  survivor count: 0 of 10
[7]
  survivor count: 0 of 10

## O=C1OC(=O)C2C1C1C3C=CC3C1C21C=C1 (stereo not drawn)
[8]
  survivor count: 7 of 10
[6]
  survivor count: 1 of 10
[7]
  survivor count: 0 of 10

## COc1cc2ccc(C(C)N)cc2cc1OC (stereo not drawn)
[7]
  survivor count: 3 of 10

## CC(=O)CCN1C(=O)c2ccccc2C1=O
[9]
  survivor count: 9 of 10

## N#CCCNc1ccc(NC(=O)C(F)(F)F)cc1
dose: 100.0 mg/kg/injection, schedule: Q01DX009 (ip), vehicle: Klucel (hydroxypropylcellulose) (HPC)
  survivor count: 8 of 10
[3]
  survivor count: 3 of 10
[7]
  survivor count: 7 of 10

## Cc1c(C(=O)O)cc2n(c1=O)Cc1cc3ccccc3nc1-2
dose: 200.0 mg/kg/injection, schedule: Q04DX003 (ip), vehicle: saline with Tween-80
  survivor count: 10 of 10

## CC(C)(CCCl)NCc1ccccc1
[6]
  survivor count: 4 of 10
[7]
  survivor count: 0 of 10

## CCCN(CCC)CC(C)=O
dose: 25.0 mg/kg/injection, schedule: Q01DX001 (ip), vehicle: saline
  T/C: 126 % of control
[6]
  survivor count: 5 of 10
[7]
  survivor count: 0 of 10

## CC(CN1CC(=O)NC(=O)C1)N1CC(=O)NC(=O)C1 (stereo not drawn)
dose: 1.0 mg/kg/injection, schedule: Q01DX009 (ip), vehicle: saline
  T/C: 131 % of control [9 of 10 alive]
dose: 6.2 mg/kg/injection, schedule: Q01DX009 (ip), vehicle: saline
  T/C: 110, 113, 116, 120 % of control
dose: 10.0 mg/kg/injection, schedule: Q01DX009 (ip), vehicle: saline
  T/C: 133 and 140 % of control
dose: 12.5 mg/kg/injection, schedule: Q01DX009 (ip), vehicle: saline
  T/C: 88, 120 (2×), 131, 133, 147 % of control
[10]
  T/C: 131 % of control [9 of 10 alive]
  survivor count: 9 of 10
[11]
  T/C: 113, 123, 129 [9 of 10 alive], 130, 134, 135 % of control
  survivor count: 9 of 10 and 10 of 10
dose: 35.0 mg/kg/injection, schedule: Q01DX009 (ip), vehicle: saline
  survivor count: 8 of 10
dose: 40.0 mg/kg/injection, schedule: Q01DX009 (ip), vehicle: saline
  T/C: 141 % of control
[12]
  T/C: 105, 136, 141, 158 % of control
  survivor count: 10 of 10
dose: 50.0 mg/kg/injection, schedule: Q04DX003 (ip), vehicle: saline
  T/C: 128 % of control
[8]
  T/C: 94, 106, 110 [9 of 10 alive], 117 % of control
[1]
  T/C: 128 and 150 % of control
  survivor count: 10 of 10
dose: 100.0 mg/kg/injection, schedule: Q04DX003 (ip), vehicle: saline
  T/C: 89 [7 of 10 alive], 97, 104, 105, 122 % of control
[2]
  T/C: 106, 116, 117, 122 % of control
[6]
  T/C: 93, 111, 121, 126 % of control
dose: 200.0 mg/kg/injection, schedule: Q01DX009 (ip), vehicle: saline
  survivor count: 10 of 10
[4]
  T/C: 91, 107, 120, 133, 197 % of control
[5]
  T/C: 116, 118, 120, 129 % of control
dose: 300.0 mg/kg/injection, schedule: Q01DX001 (ip), vehicle: water
  T/C: 127 % of control
[7]
  T/C: 105 [8 of 10 alive], 106, 182 % of control
  survivor count: 9 of 10
[13]
  T/C: 89 [9 of 10 alive], 100, 129 % of control
  survivor count: 8 of 10 and 9 of 10
[14]
  T/C: 87 [7 of 10 alive] and 131 % of control
  survivor count: 3 of 10, 8 of 10, 9 of 10
dose: 700.0 mg/kg/injection, schedule: Q01DX001 (ip), vehicle: saline
  survivor count: 10 of 10
dose: 800.0 mg/kg/injection, schedule: Q01DX001 (ip), vehicle: saline
  survivor count: 5 of 10

## Cc1c(N)nc([C@H](CC(N)=O)NC[C@H](N)C(N)=O)nc1C(=O)N[C@H](C(=O)N[C@H](C)[C@@H](O)[C@H](C)C(=O)N[C@H](C(=O)NCCc1nc(-c2nc(C(=O)NCCC[S+](C)C)cs2)cs1)[C@@H](C)O)C(OC1OC(CO)C(O)C(O)C1OC1OC(CO)C(O)C(OC(N)=O)C1O)c1cnc[nH]1 (stereo partly drawn)
dose: 0.15 mg/kg/injection, schedule: Q01DX010 (ip), vehicle: saline
  T/C: 126 % of control
dose: 0.25 mg/kg/injection, schedule: Q01DX010 (ip), vehicle: saline
  T/C: 146 % of control
dose: 2.9 mg/kg/injection, schedule: Q01DX010 (ip), vehicle: saline
  survivor count: 10 of 10
dose: 4.4 mg/kg/injection, schedule: Q01DX010 (ip), vehicle: saline
  survivor count: 10 of 10
dose: 6.7 mg/kg/injection, schedule: Q01DX010 (ip), vehicle: saline
  survivor count: 10 of 10
dose: 10.0 mg/kg/injection, schedule: Q01DX010 (ip), vehicle: saline
  survivor count: 10 of 10

## CCn1c(O)c(C=N)c(=O)[nH]c1=O
[9]
  survivor count: 10 of 10

## CCOC(=O)CCCl
dose: 100.0 mg/kg/injection, schedule: Q01DX001 (ip), vehicle: Klucel (hydroxypropylcellulose) (HPC)
  survivor count: 10 of 10
